Data as given in patent EP1268431B1 (Wyeth, priority 2000, dated 2001).
Certain results were filed several times, with different values. This is not the full list of results. The source may hold further records. Values that stand side by side do not match, cause unknown; some may be repeats, others may stem from another dose, organism or construct than stated.

Columns and labels:
[1] = tested on: human adenocarcinoma cell line CaCo-2; test: Cell Based Screen for Inhibitors of Raf Kinase, CaCo-2 cells; details: read-out: CaCo-2 IC50; CaCo-2, four days, SRB
[2] = tested on: Rat2 fibroblasts stably transformed with a plasmid containing a CMV promotor controlled v-Src/Hu c-Src fusion gene; details: read-out: anch-indep src-tx fib IC50; suspension growth, MTS on Day 5

Row | SMILES | IC50 [1] | IC50 [2]
1 | Cn1ccnc1Sc1ccc(Nc2c(C#N)cnc3cc(-c4csc(CN5CCOCC5)c4)ccc23)cc1Cl [Example 33, 4-{3-Chloro-4-[(1-methyl-1H-imidazol-2-yl)sulfanyl]anilino}-7-[5-(4-morpholinylmethyl)-3-thienyl]-3-quinolinecarbonitrite] | 1.9 µM and 780 nM | –
2 | COc1cc(Nc2c(C#N)cnc3cc(/C=C/c4ccncc4)ccc23)c(Cl)cc1Cl | – | 270 nM, 190 nM, 130 nM
